The results in this text go back to paper PMC5682287.

Sequences of proteins named here, by UniProt entry; tags and fusion partners are left off.
UniProt P40763: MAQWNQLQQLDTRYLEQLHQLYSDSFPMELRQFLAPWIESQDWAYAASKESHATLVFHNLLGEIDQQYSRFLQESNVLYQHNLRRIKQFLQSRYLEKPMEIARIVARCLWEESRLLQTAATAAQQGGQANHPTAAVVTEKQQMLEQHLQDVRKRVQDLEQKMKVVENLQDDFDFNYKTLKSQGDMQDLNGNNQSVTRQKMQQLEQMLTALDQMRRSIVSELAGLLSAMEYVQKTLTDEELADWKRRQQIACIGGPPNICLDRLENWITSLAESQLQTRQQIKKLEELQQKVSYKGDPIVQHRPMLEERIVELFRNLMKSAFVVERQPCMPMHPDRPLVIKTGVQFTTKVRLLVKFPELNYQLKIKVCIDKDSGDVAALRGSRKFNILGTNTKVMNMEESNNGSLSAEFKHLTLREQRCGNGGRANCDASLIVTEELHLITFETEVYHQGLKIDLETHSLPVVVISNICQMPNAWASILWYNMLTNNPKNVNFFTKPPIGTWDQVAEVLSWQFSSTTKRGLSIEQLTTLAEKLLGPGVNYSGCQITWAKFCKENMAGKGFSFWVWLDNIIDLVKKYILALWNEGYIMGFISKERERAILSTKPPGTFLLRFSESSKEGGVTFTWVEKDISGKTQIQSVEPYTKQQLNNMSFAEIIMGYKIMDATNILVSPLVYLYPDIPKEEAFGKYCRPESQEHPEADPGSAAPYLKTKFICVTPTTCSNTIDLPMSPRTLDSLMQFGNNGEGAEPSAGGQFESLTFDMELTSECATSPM
UniProt Q04206: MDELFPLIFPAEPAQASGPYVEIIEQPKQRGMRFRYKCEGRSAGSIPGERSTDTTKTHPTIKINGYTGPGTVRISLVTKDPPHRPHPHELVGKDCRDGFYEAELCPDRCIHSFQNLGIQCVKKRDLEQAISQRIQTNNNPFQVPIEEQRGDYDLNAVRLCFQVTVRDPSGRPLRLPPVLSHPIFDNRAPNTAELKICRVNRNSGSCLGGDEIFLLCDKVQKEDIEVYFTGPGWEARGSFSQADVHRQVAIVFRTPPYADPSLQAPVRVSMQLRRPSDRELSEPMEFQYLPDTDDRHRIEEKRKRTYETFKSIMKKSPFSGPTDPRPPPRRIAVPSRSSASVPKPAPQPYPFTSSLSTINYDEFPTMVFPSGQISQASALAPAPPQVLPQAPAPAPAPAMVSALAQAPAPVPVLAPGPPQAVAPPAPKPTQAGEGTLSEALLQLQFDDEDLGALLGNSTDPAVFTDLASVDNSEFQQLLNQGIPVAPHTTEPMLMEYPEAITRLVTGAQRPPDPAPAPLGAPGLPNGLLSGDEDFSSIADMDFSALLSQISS

For experiment [1], the target named is phospho-STAT3 (p-STAT3), endogenous (human (endogenous in U87 and LN229)) (UniProt P40763). Kind of experiment: co-IP; endogenous proteins in lysates of LN229 and U87 GBM cells with or without EGFRvIII (also EGF 20 ng/ml with or without erlotinib 10 μM, 24 h); IP buffer 20 mM Tris-HCl pH 7.5, 150 mM NaCl, 1 mM EDTA, 1% Triton X-100, 4 °C; protein G-agarose; Western blot.

Experiment [2] concerns the target STAT3, endogenous (human (endogenous in U87 and LN229)) (UniProt P40763). The experiment is described as above.
Experiment [3] concerns the target NF-κB subunit p65, endogenous (human (endogenous in U87 and LN229)) (UniProt Q04206). The experiment is described as above.
The target of experiment [4] is STAT3, endogenous (human (endogenous in U87 and LN229)) (UniProt P40763). Kind of experiment: co-IP; Flag-tagged shRNA-resistant TRIM24 constructs re-expressed in LN229/vIII/shT24 and U87/vIII/shT24 GBM cells; lysates in IP buffer (20 mM Tris-HCl pH 7.5, 150 mM NaCl, 1 mM EDTA, 1% Triton X-100); protein G-agarose; Western blot. (In general: Immunoblotting shows a protein as a band on a membrane.)

For experiment [5] the target is unchanged. Kind of experiment: co-IP; TRIM24^WT or TRIM24 deletion mutants transfected into U87 GBM cells; endogenous STAT3; lysates in IP buffer (20 mM Tris-HCl pH 7.5, 150 mM NaCl, 1 mM EDTA, 1% Triton X-100); Western blot.

Where a chain is given by its changes, count along the chain named. In names and notes the source's numbering stands. These are yes or no findings as the source states them, for the method shown. In cells and extracts the contact can be indirect. Some entries that bind do so weakly or less than the wild type. For part of these data: Where a sequence is shown, tags or fusion partners need not be part of it.

B1: tripartite motif-containing 24 (TRIM24), endogenous (protein, UniProt O15164 1-1050)
chain: MEVAVEKAVAAAAAASAAASGGPSAAPSGENEAESRQGPDSERGGEAARLNLLDTCAVCHQNIQSRAPKLLPCLHSFCQRCLPAPQRYLMLPAPMLGSAETPPPVPAPGSPVSGSSPFATQVGVIRCPVCSQECAERHIIDNFFVKDTTEVPSSTVEKSNQVCTSCEDNAEANGFCVECVEWLCKTCIRAHQRVKFTKDHTVRQKEEVSPEAVGVTSQRPVFCPFHKKEQLKLYCETCDKLTCRDCQLLEHKEHRYQFIEEAFQNQKVIIDTLITKLMEKTKYIKFTGNQIQNRIIEVNQNQKQVEQDIKVAIFTLMVEINKKGKALLHQLESLAKDHRMKLMQQQQEVAGLSKQLEHVMHFSKWAVSSGSSTALLYSKRLITYRLRHLLRARCDASPVTNNTIQFHCDPSFWAQNIINLGSLVIEDKESQPQMPKQNPVVEQNSQPPSGLSSNQLSKFPTQISLAQLRLQHMQQQVMAQRQQVQRRPAPVGLPNPRMQGPIQQPSISHQQPPPRLINFQNHSPKPNGPVLPPHPQQLRYPPNQNIPRQAIKPNPLQMAFLAQQAIKQWQISSGQGTPSTTNSTSSTPSSPTITSAAGYDGKAFGSPMIDLSSPVGGSYNLPSLPDIDCSSTIMLDNIVRKDTNIDHGQPRPPSNRTVQSPNSSVPSPGLAGPVTMTSVHPPIRSPSASSVGSRGSSGSSSKPAGADSTHKVPVVMLEPIRIKQENSGPPENYDFPVVIVKQESDEESRPQNANYPRSILTSLLLNSSQSSTSEETVLRSDAPDSTGDQPGLHQDNSSNGKSEWLDPSQKSPLHVGETRKEDDPNEDWCAVCQNGGELLCCEKCPKVFHLSCHVPTLTNFPSGEWICTFCRDLSKPEVEYDCDAPSHNSEKKKTEGLVKLTPIDKRKCERLLLFLYCHEMSLAFQDPVPLTVPDYYKIIKNPMDLSTIKKRLQEDYSMYSKPEDFVADFRLIFQNCAEFNEPDSEVANAGIKLENYFEELLKNLYPEKRFPKPEFRNESEDNKFSDDSDDDFVQPRKKRLKSIEERQLLK
For the molecule B1, the binding result in experiment [1] was “binds”; in experiment [2], “binds”; in experiment [3] it was “no binding”.

B2: Flag-tagged shRNA-resistant TRIM24 R193A/K195A mutant (TRIM24^R193A/K195A*) (protein, UniProt O15164 1-1050)
chain: B1 chain with R193A, K195A
For B2, in experiment [4], the binding result is on record as “no binding”.

B3: TRIM24^WT transfected into U87 GBM cells (protein, UniProt O15164 1-1050)
chain: B1 chain
With B3, the binding entry in experiment [5] is “binds”.

B4: Flag-tagged shRNA-resistant TRIM24 wild type (TRIM24^WT*) (protein, UniProt O15164 1-1050)
chain: B1 chain
B4: the binding entry in experiment [4] is listed as “binds”.
